Test results taken from patent US20140227293A1.
These are yes or no findings as the source states them, for the method shown. For part of these data: Binding seen in cells or lysates may run through a third protein. Some binding calls cover weakened binding; strength is not graded here. Tags and fused reporters may be left off the sequences shown.

How the values were obtained:
[1] = molecular target: T1, immunoglobulin containing and proline rich receptor-1 (IGPR-1), human, full length, ectopically expressed in PAE cells (human) (UniProt Q96BF3); test: figure legend (FIG. 6D schematic; FIG. 6E GST-SH3 pull-down)
T1 sequence (chain, N-glycosylated (apparent 55 kDa, 31 kDa after PNGase F)): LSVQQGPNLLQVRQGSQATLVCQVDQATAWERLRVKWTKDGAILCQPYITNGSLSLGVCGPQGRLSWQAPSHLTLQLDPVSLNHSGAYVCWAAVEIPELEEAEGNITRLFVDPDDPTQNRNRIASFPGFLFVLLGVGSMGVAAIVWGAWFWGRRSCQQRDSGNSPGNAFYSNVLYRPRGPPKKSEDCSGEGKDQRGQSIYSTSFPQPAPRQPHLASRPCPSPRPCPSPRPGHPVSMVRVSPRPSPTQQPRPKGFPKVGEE

[2] = molecular target: T1, immunoglobulin containing and proline rich receptor-1 (IGPR-1), human, full length, ectopically expressed in PAE cells (human); test: GST-SH3 pull-down from lysates of PAE cells expressing IGPR-1, anti-IGPR-1 immunoblot
[3] = molecular target: SH3 domain of CACNB2 (calcium channel beta 2) on the Panomics SH3 array (Oryctolagus cuniculus (Rabbit)) (UniProt P54288); test: SH3 domain protein array (34 SH3 domains) blotted with GST-IGPR-1 cytoplasmic region, detected with anti-IGPR-1 antibody
[4] = molecular target: T2, SH3 domain of BPAG1 (Bullous pemphigoid antigen-1) on the Panomics SH3 array (UniProt Q03001); test: as above
T2 sequence (looked up): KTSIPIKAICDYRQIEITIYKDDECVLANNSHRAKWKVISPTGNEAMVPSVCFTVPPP

[5] = molecular target: T3, SH3 domain of MIA (Melanoma inhibitory activity) on the Panomics SH3 array (UniProt Q16674); test: as above
T3 sequence (looked up): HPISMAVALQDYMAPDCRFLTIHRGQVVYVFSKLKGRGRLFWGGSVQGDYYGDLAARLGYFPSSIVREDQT

[6] = molecular target: SH3 domain of SPIN90/WISH (SH3 Protein Interacting with Nck, 90 kDa) on the Panomics SH3 array (Homo sapiens (Human)) (UniProt Q9NZQ3); test: as above

Measured: binding

B1: GST recombinant SH3 domain of BPAG1 (protein, UniProt Q03001 887-944, looked up, not shown: a dimerising Fc or GST)
chain: KTSIPIKAICDYRQIEITIYKDDECVLANNSHRAKWKVISPTGNEAMVPSVCFTVPPP
binds: [1] | [2]

B2: purified GST-IGPR-1 (cytoplasmic region) (protein, not shown: a dimerising Fc or GST)
chain: WGRRSCQQRDSGNSPGNAFYSNVLYRPRGPPKKSEDCSGEGKDQRGQSIYSTSFPQPAPRQPHLASRPCPSPRPCPSPRPGHPVSMVRVSPRPSPTQQPRPKGFPKVGEE
binds: [3] | [4] | [5] | [6]
